Experiments:
[1] = Complex formation on exposure to Zr(IV), analysed by LC-MS/ESI-MS; format: physicochemical; conditions: ESI-MS analysis
[2] = Complex formation on exposure to Lu(III), analysed by LC-MS/ESI-MS; format: physicochemical; conditions: ESI-MS analysis

SMILES | number of chelating ligands of the compound forming a complex with the metal ion [1] | number of chelating ligands of the compound forming a complex with the metal ion [2]
CC(=O)N(O)CCCCCNC(=O)CCC(=O)N(O)CCCCCNC(=O)CCC(=O)N(O)CCCCCNC(=O)CN1CCN(CC(=O)O)CCN(CC(=O)O)CCN(CC(=O)O)CC1 [DFOB-DOTA (2), DFOB-DOTA] | only one of the two chelating ligands | only one of the two chelating ligands
CC(=O)N(O)CCCCCNC(=O)CCC(=O)N(O)CCCCCNC(=O)CCC(=O)N(O)CCCCCNC(=O)[C@@H](N)CCCCNC(=O)CN1CCN(CC(=O)O)CCN(CC(=O)O)CCN(CC(=O)O)CC1 [DFOB-L-LYS-DOTA (3), DFOB-L-LYS-DOTA] | only one of the two chelating ligands | only one of the two chelating ligands

Source: patent US20250025582A1, “LIGANDS AND THEIR USE” (THE UNIVERSITY OF SYDNEY, priority 2020, published 2025)
